{"sequences": {"note": "Protein sequences, listed by entry. Tags and fused reporters are not part of them.", "UniProt Q01196": "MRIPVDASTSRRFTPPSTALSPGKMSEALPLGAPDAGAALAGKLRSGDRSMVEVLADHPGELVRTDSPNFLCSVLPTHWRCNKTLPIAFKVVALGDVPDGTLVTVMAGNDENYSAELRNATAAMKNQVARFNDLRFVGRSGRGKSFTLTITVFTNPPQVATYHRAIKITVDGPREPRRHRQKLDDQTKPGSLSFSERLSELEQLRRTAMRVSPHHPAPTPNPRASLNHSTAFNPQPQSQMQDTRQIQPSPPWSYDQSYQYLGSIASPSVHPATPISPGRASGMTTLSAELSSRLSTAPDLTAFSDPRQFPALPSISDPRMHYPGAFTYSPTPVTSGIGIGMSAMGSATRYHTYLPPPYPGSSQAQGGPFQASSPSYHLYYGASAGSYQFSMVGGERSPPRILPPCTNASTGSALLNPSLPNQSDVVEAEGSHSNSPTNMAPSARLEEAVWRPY"}, "source": "paper PMC11900815", "binders": {"B1": {"name": "Nuclear receptor subfamily 2 group F member 1 (NR2F1), endogenous (protein, UniProt P10589 1-423)", "chain": "MAMVVSSWRDPQDDVAGGNPGGPNPAAQAARGGGGGAGEQQQQAGSGAPHTPQTPGQPGAPATPGTAGDKGQGPPGSGQSQQHIECVVCGDKSSGKHYGQFTCEGCKSFFKRSVRRNLTYTCRANRNCPIDQHHRNQCQYCRLKKCLKVGMRREAVQRGRMPPTQPNPGQYALTNGDPLNGHCYLSGYISLLLRAEPYPTSRYGSQCMQPNNIMGIENICELAARLLFSAVEWARNIPFFPDLQITDQVSLLRLTWSELFVLNAAQCSMPLHVAPLLAAAGLHASPMSADRVVAFMDHIRIFQEQVEKLKALHVDSAEYSCLKAIVLFTSDACGLSDAAHIESLQEKSQCALEEYVRSQYPNQPSRFGKLLLRLPSLRTVSSSVIEQLFFVRLVGKTPIETLIRDMLLSGSSFNWPYMSIQCS"}, "B2": {"name": "Ligand dependent nuclear receptor corepressor (LCOR), endogenous (protein, UniProt Q96JN0 1-433)", "chain": "MQRMIQQFAAEYTSKNSSTQDPSQPNSTKNQSLPKASPVTTSPTAATTQNPVLSKLLMADQDSPLDLTVRKSQSEPSEQDGVLDLSTKKSPCAGSTSLSHSPGCSSTQGNGRPGRPSQYRPDGLRSGDGVPPRSLQDGTREGFGHSTSLKVPLARSLQISEELLSRNQLSTAASLGPSGLQNHGQHLILSREASWAKPHYEFNLSRMKFRGNGALSNISDLPFLAENSAFPKMALQAKQDGKKDVSHSSPVDLKIPQVRGMDLSWESRTGDQYSYSSLVMGSQTESALSKKLRAILPKQSRKSMLDAGPDSWGSDAEQSTSGQPYPTSDQEGDPGSKQPRKKRGRYRQYNSEILEEAISVVMSGKMSVSKAQSIYGIPHSTLEYKVKERLGTLKNPPKKKMKLMRSEGPDVSVKIELDPQGEAAQSANESKNE"}, "B3": {"name": "Flag-LCOR (protein, UniProt Q96JN0-1 1-433)", "chain": "B2 chain"}}, "key": {"[1]": {"biological_target": "T1, Ligand dependent nuclear receptor corepressor (LCOR), endogenous (human (endogenous in A498, CAKI and HEK293T)) (UniProt Q96JN0)", "T1 sequence": "B2 chain", "test": "co-IP; endogenous proteins in A498, CAKI and HEK293T lysates; primary antibody or IgG overnight at 4°C, protein A/G magnetic beads 4 h, washed with RIPA, western blot"}, "[2]": {"biological_target": "RUNX family transcription factor 1 (RUNX1), endogenous (human (endogenous in A498, CAKI and HEK293T)) (UniProt Q01196)", "test": "co-IP; endogenous proteins in A498, CAKI and HEK293T lysates; primary antibody or IgG overnight at 4°C, protein A/G magnetic beads 4 h, washed with RIPA, western blot"}, "[3]": {"biological_target": "T2, Nuclear receptor subfamily 2 group F member 1 (NR2F1), endogenous (human (endogenous in A498, CAKI and HEK293T)) (UniProt P10589)", "T2 sequence": "B1 chain", "test": "co-IP; endogenous proteins in A498, CAKI and HEK293T lysates; primary antibody or IgG overnight at 4°C, protein A/G magnetic beads 4 h, washed with RIPA, western blot"}, "HA-RUNX1": {"biological_target": "HA-RUNX1 (UniProt Q01196)", "test": "co-IP; Flag-LCOR co-transfected with HA-RUNX1 or HA-NR2F1 in HEK293T cells; protein A/G magnetic beads, washed with RIPA, western blot"}, "HA-NR2F1": {"biological_target": "T3, HA-NR2F1 (UniProt P10589)", "T3 sequence": "B1 chain", "test": "co-IP; Flag-LCOR co-transfected with HA-RUNX1 or HA-NR2F1 in HEK293T cells; protein A/G magnetic beads, washed with RIPA, western blot"}}, "note": "No constants are given. Whether binding was seen depends on the method and setting. In cells and extracts the contact can be indirect. Some results given as binding are weak or reduced against the parent protein; the word gives no strength. For some assays here: Sequences can lack the tags named with a protein.", "data": [{"binder": "B1", "values": [{"measurement": "binding", "setting": "[1]", "result": "binds"}]}, {"binder": "B2", "values": [{"measurement": "binding", "setting": "[2]", "result": "binds"}, {"measurement": "binding", "setting": "[3]", "result": "binds"}]}, {"binder": "B3", "values": [{"measurement": "binding", "setting": "HA-RUNX1", "result": "binds"}, {"measurement": "binding", "setting": "HA-NR2F1", "result": "binds"}]}]}
